No constants are given. Whether binding was seen depends on the method and setting. In cells and extracts the contact can be indirect. Binding calls can cover weak binding; strength is not graded here. Sequences can lack the tags named with a protein.
Molecular target: T1, 3-O-sulfotransferase-5 tagged with GFP (3OST5-GFP) (UniProt Q8IZT8)
T1 sequence: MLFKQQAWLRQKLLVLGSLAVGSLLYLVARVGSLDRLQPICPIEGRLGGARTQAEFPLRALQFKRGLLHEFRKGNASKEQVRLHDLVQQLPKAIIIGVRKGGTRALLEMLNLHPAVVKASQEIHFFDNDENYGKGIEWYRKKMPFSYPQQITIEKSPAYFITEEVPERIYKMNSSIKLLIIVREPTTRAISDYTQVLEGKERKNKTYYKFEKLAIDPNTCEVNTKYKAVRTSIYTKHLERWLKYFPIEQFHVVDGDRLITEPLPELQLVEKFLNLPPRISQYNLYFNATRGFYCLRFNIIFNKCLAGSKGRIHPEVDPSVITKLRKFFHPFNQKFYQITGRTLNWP
Experiment: co-IP; EC-3OST5 cell lysate (IP buffer: 150 mM NaCl, 50 mM Tris-HCl pH 7.5, 1% NP-40, 2 mM EDTA) precipitated with anti-GFP polyclonal antibody on protein G Plus-agarose, 18 h at 4 °C; Western blot with anti-GOLPH3

Golgi phosphoprotein 3 (GOLPH3)
binding: binds
